Test results: publication PMC2346476
Results are given in words; binding and its absence hold for the method and conditions named. In cells and extracts the contact can be indirect. Some entries that bind do so weakly or less than the wild type.

Amino acid sequences for entries named in this document (tags omitted). Residues count along the entry.
UniProt O94763, residues 26-535: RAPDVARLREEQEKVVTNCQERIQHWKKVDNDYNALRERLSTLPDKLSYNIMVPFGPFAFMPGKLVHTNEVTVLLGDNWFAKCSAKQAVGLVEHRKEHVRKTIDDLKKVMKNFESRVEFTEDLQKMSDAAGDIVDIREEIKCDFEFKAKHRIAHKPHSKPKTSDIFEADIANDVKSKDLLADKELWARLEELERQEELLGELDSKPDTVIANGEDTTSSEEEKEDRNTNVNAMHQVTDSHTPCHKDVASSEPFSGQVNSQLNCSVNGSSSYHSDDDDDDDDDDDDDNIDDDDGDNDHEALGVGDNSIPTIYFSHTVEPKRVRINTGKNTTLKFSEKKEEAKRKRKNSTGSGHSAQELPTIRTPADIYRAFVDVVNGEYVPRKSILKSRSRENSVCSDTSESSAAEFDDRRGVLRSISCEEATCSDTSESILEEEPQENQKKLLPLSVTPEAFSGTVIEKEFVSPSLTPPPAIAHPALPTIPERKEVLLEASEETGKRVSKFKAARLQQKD
UniProt P12982: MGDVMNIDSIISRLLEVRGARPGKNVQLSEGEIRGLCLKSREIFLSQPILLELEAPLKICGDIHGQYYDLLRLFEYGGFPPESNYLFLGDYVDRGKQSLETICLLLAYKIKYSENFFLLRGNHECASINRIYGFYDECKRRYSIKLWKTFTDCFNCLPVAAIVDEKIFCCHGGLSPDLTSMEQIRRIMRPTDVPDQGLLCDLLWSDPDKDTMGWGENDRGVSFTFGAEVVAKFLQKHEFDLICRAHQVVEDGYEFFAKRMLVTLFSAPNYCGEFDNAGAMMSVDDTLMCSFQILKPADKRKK
UniProt P62136: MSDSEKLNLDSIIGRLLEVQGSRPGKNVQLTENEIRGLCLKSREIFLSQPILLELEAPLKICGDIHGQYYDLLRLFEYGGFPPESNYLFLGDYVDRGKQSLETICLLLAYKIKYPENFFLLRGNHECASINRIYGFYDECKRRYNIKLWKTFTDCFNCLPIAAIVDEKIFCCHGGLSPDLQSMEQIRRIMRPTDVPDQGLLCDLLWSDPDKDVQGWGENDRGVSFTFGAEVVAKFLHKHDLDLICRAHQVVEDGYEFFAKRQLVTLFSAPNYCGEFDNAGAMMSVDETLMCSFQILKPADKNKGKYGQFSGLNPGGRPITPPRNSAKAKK
UniProt P62140: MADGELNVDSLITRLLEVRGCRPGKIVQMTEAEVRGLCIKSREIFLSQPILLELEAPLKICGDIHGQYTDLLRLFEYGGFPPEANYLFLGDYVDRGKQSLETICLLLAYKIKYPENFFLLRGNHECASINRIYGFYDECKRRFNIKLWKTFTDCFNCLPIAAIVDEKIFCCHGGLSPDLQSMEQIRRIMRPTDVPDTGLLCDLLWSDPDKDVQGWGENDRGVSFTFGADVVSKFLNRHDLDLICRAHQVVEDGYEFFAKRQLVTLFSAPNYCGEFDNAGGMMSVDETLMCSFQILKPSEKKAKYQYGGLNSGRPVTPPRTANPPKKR

T1: endogenous Drosophila Uri (Drosophila (endogenous in flies)) (UniProt Q9W148)
T1 sequence: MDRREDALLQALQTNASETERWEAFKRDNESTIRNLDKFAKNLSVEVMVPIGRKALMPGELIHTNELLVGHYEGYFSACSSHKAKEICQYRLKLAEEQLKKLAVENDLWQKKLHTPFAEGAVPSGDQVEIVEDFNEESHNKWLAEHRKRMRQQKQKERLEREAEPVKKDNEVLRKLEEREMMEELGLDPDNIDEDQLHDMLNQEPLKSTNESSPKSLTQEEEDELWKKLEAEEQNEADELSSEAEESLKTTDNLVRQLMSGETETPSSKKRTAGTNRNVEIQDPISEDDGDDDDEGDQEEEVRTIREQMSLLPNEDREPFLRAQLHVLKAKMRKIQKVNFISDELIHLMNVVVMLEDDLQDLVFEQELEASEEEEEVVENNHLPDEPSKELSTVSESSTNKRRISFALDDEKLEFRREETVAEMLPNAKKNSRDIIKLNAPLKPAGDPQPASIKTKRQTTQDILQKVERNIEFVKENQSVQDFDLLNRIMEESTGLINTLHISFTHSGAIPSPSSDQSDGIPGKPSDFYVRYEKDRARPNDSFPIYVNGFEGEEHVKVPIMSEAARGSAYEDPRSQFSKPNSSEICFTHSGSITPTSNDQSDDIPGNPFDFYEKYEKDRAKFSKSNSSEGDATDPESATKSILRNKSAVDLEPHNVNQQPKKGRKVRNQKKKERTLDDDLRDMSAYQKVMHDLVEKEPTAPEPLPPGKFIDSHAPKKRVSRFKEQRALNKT

B1: endogenous Drosophila Uri (protein, UniProt Q9W148 1-731)
chain: T1 sequence

Experiments:
[1] = molecular target: T1, endogenous Drosophila Uri (Drosophila (endogenous in flies)); assay: co-IP; fly lysates (arm-GAL4; UAS-HA-PP1c), immunoprecipitation with anti-Uri antibodies and Protein G Sepharose, immunoblot with anti-HA; IP buffer 25 mM HEPES pH 7.5, 100 mM NaCl, 1 mM EGTA, 0.1% Triton X-100, 10% glycerol
[2] = molecular target: FLAG-tagged human URI/RMP (pNKFlag-RMP) (human) (UniProt O94763); assay: co-IP; lysates of co-transfected COS7 cells, immunoprecipitation with anti-FLAG antibodies, immunoblot with anti-V5; 50 mM Tris-HCl, 0.5% Triton-X100, 150 mM NaCl
[3] = molecular target: HA-tagged Drosophila PP1α87B expressed in flies (arm-GAL4; UAS-HA-PP1α87B) (Drosophila) (UniProt P12982); assay: co-IP; reciprocal experiment: immunoprecipitation with anti-HA antibodies, immunoblot with anti-Uri antibodies; data not shown

Molecule | binding [2] | further results
HA-tagged Drosophila PP1α87B expressed in flies (arm-GAL4; UAS-HA-PP1α87B) (from UniProt P12982 1-302) (enzyme) | – | binding [1]: binds
V5-tagged human PP1α (clone H-X70848M in pcDNA3.1/GS) (from UniProt P62136 1-330) (enzyme) | binds | –
V5-tagged human PP1β (clone H-X80910M in pcDNA3.1/GS) (from UniProt P62140 1-327) (enzyme) | no binding | –
B1 | – | binding [3]: binds
